# In the supplement of paper PMC12067093, “Discovery and optimisation of a covalent ligand for TRIM25 and its application to targeted protein ubiquitination” (Chemical Science, 2025):
# Amino acid sequences for entries named in this document (tags omitted). A change or cut given only in a name is not applied to a line headed by its entry.
# UniProt Q9NNW5: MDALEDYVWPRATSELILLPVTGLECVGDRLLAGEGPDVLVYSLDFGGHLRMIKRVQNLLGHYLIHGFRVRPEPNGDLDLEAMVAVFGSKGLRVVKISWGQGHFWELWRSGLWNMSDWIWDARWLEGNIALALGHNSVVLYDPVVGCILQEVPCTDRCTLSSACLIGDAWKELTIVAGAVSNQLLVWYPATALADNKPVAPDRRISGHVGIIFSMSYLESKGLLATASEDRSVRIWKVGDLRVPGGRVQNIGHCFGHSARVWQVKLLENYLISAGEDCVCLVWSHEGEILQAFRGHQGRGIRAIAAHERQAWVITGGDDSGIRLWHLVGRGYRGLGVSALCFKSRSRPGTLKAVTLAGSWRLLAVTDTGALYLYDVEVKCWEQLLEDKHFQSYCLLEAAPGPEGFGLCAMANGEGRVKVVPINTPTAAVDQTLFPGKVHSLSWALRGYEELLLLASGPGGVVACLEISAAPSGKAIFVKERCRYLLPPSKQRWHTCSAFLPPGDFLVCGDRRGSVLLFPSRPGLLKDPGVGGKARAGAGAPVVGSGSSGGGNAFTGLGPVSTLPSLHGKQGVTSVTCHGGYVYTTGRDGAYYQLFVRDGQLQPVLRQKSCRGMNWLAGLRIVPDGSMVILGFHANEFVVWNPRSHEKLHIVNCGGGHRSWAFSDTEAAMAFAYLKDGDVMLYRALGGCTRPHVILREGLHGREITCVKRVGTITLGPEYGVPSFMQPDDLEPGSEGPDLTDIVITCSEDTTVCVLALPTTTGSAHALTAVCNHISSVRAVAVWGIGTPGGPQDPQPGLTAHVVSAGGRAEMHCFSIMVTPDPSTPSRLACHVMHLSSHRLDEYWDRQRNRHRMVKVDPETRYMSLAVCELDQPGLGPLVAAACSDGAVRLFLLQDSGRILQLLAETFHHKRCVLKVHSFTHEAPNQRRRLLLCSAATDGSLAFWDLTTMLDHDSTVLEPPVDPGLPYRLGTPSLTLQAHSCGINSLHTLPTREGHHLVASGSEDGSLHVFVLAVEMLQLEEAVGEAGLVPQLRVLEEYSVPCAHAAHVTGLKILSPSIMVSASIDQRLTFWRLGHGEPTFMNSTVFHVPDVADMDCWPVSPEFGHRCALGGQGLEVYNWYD
# UniProt Q9UNX4: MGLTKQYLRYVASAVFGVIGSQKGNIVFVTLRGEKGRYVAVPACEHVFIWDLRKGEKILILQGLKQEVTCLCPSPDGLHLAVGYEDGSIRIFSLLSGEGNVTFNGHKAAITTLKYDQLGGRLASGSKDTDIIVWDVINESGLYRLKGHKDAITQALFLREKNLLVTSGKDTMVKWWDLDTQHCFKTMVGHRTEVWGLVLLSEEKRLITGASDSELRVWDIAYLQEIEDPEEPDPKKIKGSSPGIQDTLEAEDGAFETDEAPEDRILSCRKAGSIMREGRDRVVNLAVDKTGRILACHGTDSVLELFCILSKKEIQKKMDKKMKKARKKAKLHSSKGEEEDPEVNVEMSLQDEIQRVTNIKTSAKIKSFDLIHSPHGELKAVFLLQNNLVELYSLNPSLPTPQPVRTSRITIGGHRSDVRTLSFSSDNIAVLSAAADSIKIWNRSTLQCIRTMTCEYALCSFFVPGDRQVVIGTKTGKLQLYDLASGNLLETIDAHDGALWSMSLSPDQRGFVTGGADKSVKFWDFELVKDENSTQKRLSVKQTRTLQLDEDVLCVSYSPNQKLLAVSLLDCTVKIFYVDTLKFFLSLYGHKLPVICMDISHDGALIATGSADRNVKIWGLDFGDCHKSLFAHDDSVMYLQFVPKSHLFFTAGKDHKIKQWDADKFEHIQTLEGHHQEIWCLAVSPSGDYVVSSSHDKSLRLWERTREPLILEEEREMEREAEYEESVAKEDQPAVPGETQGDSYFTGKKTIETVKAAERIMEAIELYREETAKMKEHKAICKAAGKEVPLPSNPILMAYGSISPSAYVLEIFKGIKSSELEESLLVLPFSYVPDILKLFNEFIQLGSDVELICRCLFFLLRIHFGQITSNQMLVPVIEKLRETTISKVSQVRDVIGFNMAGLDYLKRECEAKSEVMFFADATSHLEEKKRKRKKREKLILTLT
# UniProt O75717: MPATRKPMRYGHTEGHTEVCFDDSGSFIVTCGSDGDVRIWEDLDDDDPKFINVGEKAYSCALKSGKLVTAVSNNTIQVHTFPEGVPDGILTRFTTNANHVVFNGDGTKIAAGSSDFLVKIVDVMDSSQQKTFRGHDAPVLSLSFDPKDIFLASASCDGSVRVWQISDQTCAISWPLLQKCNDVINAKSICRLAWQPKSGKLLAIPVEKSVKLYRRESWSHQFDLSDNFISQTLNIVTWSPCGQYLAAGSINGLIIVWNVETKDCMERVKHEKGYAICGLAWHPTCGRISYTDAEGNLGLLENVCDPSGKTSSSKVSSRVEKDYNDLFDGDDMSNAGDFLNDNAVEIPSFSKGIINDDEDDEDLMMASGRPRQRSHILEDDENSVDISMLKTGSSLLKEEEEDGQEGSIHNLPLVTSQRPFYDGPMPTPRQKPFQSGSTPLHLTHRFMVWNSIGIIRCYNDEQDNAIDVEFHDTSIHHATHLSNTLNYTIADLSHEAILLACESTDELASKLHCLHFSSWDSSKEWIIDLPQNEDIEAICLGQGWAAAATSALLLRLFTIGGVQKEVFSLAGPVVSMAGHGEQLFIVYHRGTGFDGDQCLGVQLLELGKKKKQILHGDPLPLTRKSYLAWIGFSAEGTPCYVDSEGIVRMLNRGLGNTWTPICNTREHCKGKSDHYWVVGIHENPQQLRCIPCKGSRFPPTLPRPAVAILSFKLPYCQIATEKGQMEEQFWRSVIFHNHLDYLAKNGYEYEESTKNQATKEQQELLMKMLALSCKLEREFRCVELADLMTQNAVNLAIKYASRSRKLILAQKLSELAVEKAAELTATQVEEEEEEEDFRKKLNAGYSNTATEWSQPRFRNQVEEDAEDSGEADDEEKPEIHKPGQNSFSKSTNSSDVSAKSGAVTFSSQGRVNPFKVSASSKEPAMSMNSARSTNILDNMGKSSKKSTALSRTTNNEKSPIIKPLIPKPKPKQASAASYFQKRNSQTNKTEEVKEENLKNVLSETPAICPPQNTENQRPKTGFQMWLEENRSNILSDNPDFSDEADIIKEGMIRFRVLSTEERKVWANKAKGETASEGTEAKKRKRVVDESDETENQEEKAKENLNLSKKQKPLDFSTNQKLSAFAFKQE
# UniProt O94967: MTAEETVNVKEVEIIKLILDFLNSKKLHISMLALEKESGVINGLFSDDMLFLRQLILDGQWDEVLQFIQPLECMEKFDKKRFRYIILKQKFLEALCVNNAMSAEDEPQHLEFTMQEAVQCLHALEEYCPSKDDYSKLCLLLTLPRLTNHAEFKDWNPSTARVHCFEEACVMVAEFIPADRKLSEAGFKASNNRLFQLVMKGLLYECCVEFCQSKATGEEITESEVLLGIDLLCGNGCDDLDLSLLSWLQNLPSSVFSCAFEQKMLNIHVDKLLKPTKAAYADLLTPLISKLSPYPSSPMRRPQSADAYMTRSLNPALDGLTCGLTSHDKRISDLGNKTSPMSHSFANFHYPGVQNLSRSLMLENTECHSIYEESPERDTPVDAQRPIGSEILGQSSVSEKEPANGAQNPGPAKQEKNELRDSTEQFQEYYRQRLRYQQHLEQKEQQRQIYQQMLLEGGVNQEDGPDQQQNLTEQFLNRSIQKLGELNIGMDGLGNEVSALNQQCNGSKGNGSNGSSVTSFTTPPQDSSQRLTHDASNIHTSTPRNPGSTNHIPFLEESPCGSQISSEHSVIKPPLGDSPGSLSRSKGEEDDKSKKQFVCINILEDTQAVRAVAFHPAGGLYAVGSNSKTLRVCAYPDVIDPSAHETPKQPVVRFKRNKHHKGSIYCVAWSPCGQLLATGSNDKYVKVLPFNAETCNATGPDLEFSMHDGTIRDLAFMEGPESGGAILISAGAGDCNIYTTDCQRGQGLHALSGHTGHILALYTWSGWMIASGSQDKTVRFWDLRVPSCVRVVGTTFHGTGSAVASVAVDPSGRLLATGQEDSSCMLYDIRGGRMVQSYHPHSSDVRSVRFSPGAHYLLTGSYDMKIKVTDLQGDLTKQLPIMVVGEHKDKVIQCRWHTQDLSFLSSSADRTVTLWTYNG
# UniProt Q96MX6, whole entry, looked up: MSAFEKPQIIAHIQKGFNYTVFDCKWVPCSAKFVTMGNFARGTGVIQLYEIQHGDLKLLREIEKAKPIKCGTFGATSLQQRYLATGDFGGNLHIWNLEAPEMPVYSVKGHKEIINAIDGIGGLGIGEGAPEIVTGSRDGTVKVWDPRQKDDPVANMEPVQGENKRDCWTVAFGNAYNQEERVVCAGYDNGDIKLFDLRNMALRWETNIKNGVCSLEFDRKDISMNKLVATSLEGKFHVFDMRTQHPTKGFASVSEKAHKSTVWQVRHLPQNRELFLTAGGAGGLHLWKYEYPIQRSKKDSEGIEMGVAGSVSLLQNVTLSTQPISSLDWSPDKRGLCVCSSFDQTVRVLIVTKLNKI
# UniProt Q96HA8: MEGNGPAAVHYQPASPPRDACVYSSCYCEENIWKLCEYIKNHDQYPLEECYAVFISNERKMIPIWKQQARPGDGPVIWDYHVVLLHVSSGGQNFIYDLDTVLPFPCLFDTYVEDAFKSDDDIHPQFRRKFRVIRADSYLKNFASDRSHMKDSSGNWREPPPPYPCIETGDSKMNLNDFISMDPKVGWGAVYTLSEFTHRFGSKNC
# UniProt Q15061: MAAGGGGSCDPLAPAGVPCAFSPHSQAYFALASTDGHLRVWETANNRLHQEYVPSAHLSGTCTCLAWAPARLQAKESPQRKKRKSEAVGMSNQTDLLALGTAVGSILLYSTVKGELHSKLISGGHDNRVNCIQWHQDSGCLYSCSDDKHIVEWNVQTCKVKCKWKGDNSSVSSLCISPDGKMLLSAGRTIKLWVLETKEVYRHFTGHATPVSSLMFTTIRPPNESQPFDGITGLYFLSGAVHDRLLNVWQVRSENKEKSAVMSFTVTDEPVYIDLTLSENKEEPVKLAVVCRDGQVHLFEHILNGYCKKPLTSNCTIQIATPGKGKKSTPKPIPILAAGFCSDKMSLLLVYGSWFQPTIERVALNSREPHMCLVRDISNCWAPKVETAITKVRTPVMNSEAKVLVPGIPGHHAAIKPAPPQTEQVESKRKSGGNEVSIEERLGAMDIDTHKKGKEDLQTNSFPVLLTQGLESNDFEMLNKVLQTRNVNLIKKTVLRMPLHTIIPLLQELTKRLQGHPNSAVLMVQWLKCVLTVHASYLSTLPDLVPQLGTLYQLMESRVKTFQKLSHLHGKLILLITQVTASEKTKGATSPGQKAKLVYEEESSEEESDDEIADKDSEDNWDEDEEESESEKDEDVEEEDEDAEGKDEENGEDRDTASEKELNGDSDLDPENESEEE
# UniProt O75083: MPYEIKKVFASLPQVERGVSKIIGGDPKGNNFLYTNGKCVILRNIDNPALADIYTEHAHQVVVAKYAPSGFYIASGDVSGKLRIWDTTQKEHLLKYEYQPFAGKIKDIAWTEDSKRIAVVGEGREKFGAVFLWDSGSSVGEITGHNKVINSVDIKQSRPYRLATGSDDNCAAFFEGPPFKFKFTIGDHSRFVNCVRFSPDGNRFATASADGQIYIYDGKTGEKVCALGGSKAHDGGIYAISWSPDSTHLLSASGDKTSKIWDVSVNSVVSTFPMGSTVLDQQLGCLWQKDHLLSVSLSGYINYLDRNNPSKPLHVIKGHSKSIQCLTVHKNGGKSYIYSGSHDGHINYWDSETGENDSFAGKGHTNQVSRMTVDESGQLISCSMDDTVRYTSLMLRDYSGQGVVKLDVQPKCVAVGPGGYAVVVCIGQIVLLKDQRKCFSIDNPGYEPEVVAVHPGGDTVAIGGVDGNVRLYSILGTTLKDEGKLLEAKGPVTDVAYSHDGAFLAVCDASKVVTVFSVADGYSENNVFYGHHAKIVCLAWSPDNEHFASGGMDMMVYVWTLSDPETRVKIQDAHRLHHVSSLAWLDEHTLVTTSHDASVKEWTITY
# UniProt Q6RFH5: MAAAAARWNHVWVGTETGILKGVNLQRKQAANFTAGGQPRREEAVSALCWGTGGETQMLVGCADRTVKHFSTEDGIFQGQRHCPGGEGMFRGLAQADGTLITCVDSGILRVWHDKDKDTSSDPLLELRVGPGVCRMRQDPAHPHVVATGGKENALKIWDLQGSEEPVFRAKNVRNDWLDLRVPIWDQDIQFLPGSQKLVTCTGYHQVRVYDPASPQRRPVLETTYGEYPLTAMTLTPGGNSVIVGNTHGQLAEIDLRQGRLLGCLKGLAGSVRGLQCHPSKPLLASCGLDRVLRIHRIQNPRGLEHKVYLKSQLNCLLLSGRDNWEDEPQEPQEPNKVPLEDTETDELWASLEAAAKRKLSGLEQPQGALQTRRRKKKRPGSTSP
# The list shows a part of the results.
# Compound: CC1Cc2ccccc2N1C(=O)C1CCCN(C1)C(=O)CCl (mixture of isomers) [TRIM25 ligand 11 (diastereomer mixture)]
# Assay: probe-labelled cysteine peptide fold change vs DMSO (competition) (log2 fold change); higher = less target engagement (more negative = stronger competition)
# Details: THP-1, incubation time: 4 h
# 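Note: competitive chemoproteomic profiling in live THP-1 cells with an iodoacetamide desthiobiotin (IA-DTB) probe, comparing probe-labelled peptide intensities in compound-treated cells against DMSO-treated controls.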
Target,probe-labelled cysteine peptide fold change (10 µM),probe-labelled cysteine peptide fold change (50 µM)
WDR11_Q9BZH6_83_ENYHHNIGSPYCLR (UniProt Q9BZH6),-0.00383,0.0058
WDR13_Q9H1Z4_423_QGACVVTGSEDMCVHFFDVER (UniProt Q9H1Z4),0.273,0.1
WDR91_A4D1P6_704_VLESCLSLGGHR (UniProt A4D1P6),0.135,0.0594
WDR12_Q9GZL7_185_ALHCCR (UniProt Q9GZL7),0.0665,0.103
WBP4_O75554_18_CWIADNRPSVEFHER (UniProt O75554),-0.0412,-0.13
WWOX_Q9NZC7_155_SFALHGAHVILACR (UniProt Q9NZC7),0.0852,0.147
WDR6_Q9NNW5_830_LACHVMHLSSHR (UniProt Q9NNW5),0.0252,0.296
WDR3_Q9UNX4_448_STLQCIR (UniProt Q9UNX4),0.0627,0.335
WDHD1_O75717_277+285_GYAICGLAWHPTCGR (UniProt O75717),-0.16,-0.111
WDR47_O94967_695_VLPFNAETCNATGPDLEFSMHDGTIR (UniProt O94967),0.0901,0.123
WDR92_Q96MX6_24_GFNYTVFDCK (UniProt Q96MX6),0.0338,0.131
WDFY4_Q6ZS81_2226_TEDFVSCIENYRR (UniProt Q6ZS81),0.00908,-0.0125
WDR6_Q9NNW5_254_VQNIGHCFGHSAR (UniProt Q9NNW5),0.181,0.0389
WDR76_Q9H967_214_RENGIGCR (UniProt Q9H967),-0.0382,-0.13
WDYHV1_Q96HA8_50_NHDQYPLEECYAVFISNER (UniProt Q96HA8),0.545,0.0928
XIAP_P98170_351_GQEYINNIHLTHSLEECLVR (UniProt P98170),0.0904,-0.106
WDR43_Q15061_315_KPLTSNCTIQIATPGK (UniProt Q15061),-0.0227,-0.0744
WDR70_Q9NW82_338_KVIPTTCTYSR (UniProt Q9NW82),-0.0141,0.375
WDR1_O75083_225_VCALGGSK (UniProt O75083),0.0155,0.0103
WDR74_Q6RFH5_316_SQLNCLLLSGR (UniProt Q6RFH5),-0.0123,-0.214

Target,probe-labelled cysteine peptide fold change (10 µM),probe-labelled cysteine peptide fold change (50 µM)
WDR74_Q6RFH5_83_HCPGGEGMFR (UniProt Q6RFH5),0.0657,-0.0427
WIPI2_Q9Y4P8_430_LAYTDDLGAVGGACLEDEASALRLDEDSEHPPMILR (UniProt Q9Y4P8),-0.0733,-0.242
WDFY4_Q6ZS81_2449_HCLSNISDPFIFNLCSK (UniProt Q6ZS81),-0.0629,-0.243
WDR48_Q8TAF3_366_GGASIIQCHILNDKR (UniProt Q8TAF3),-0.0025,0.0541
XPC_Q01831_224_NNICSQPDLHAIGLSIIPAR (UniProt Q01831),-0.0894,0.0467
WDR47_O94967_322_SLNPALDGLTCGLTSHDK (UniProt O94967),0.104,-0.116
WASHC4_Q2M389_1031_NFYIIVPPLTLNFVEHSISCK (UniProt Q2M389),0.0838,-0.00493
WDFY3_Q8IZQ1_908_CSAALADEDHSLHPPLQR (UniProt Q8IZQ1),0.273,-0.0942
WDR43_Q15061_140_VNCIQWHQDSGCLYSCSDDK (UniProt Q15061),0.0884,0.0864
WDR12_Q9GZL7_97_YTAPQPEQCMFHDDWISSIK (UniProt Q9GZL7),0.171,-0.00138
WDR55_Q9H6Y2_5_TCEERPAEDGSDEEDPDSMEAPTR (UniProt Q9H6Y2),-0.76,-0.645
WWP2_O00308_186_HQPPSTNCFGGR (UniProt O00308),-0.035,-0.168
WDR59_Q6PJI9_654_VIIQDIACLLPVHK (UniProt Q6PJI9),0.0591,-0.0345
WDHD1_O75717_781_CVELADLMTQNAVNLAIK (UniProt O75717),0.0994,0.0632
WDR6_Q9NNW5_981_LGTPSLTLQAHSCGINSLHTLPTR (UniProt Q9NNW5),0.137,0.138
WDFY4_Q6ZS81_545_VSTPGVQDPERELTCVMLR (UniProt Q6ZS81),-0.026,0.167
WDR6_Q9NNW5_688_ALGGCTRPHVILR (UniProt Q9NNW5),0.0217,0.052
WDR3_Q9UNX4_70_QEVTCLCPSPDGLHLAVGYEDGSIR (UniProt Q9UNX4),0.137,0.0953
WDR81_Q562E7_76_RLPLGPCPR (UniProt Q562E7),0.0121,0.253
